In PubChem BioAssay AID493014 (National Center for Advancing Translational Sciences (NCATS), 2011):
Screen size: about 340,000 compounds; about 170 (0.05%) were called active. The shares of active, inactive and inconclusive entries below differ from those in the screen. Calls follow the shape of the dose curve; as a rule, active = well fitted inhibition curve with a large enough effect in the signal ratio, with a control signal flat (not every such curve was filed as active); inconclusive = small, poorly fitted or top-dose-only effect, or effect the other way, or a change in a side signal; inactive = flat fitted curve, though single readings scatter; the % refers to the signal ratio. Potencies of inconclusive entries are doubtful fits and often do not repeat.
Potency is read from the fitted curve at half-maximal effect.

Test: qHTS Assay to Find Inhibitors of Chronic Active B-Cell Receptor Signaling;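 as to activity change, negative = inhibition: plate controls were basal doxycycline-induced cells for no effect and cells given 10 µM MG132 for full effect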
Settings: ABC-DLBCL IkBa-CBG/CBR reporter, luminescence ratio (green luciferase fused to IkBa over red control in TMD8 lymphoma cells), 4 h; activity change, negative = inhibition: at 46.1 µM (top of the series)
Method in brief: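 Compounds up to 46 uM were incubated four hours with TMD8 cells whose green CBG68 luciferase is fused to IkappaBalpha; red CBR luminescence normalised the signal, and concentration-effect curves were fitted to fusion, red and ratio data.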
With Cc1cccc(CN2CCC(C(=O)Nc3cccc(-c4cscn4)c3)CC2)n1 the “activity change, negative = inhibition” value was inactive: 1.34%. With Cc1nc2cc(NC(=O)Nc3cccc(F)c3)ccc2n1C the Potency was inconclusive: 35.5 µM [falling, single point]. In the case of Cc1cc(OCC(=O)Nc2ccc(CN3CCOCC3)cc2)ccc1Cl, the activity change, negative = inhibition is reported as inconclusive: -27%. For CN(C)c1ccc(-c2cc3ccccc3c(=O)o2)cc1, the activity change, negative = inhibition was inconclusive: 3.3%. With O=C(NCCCc1ccccc1)C1CCN(c2nnc(-n3cccc3)s2)CC1 the “activity change, negative = inhibition” value was inactive: 4.31%. In the case of Cc1cc2oc(=O)cc(CN(C)Cc3ccccc3Cl)c2cc1C, the activity change, negative = inhibition is reported as inconclusive: 5.93%. With CCN(CC)C(=O)C(C)N(C#N)c1nc(NC(C)C)nc(NC(C)C)n1 (centres undefined) the activity change, negative = inhibition was inconclusive: -0.0828%. For COc1ccc(CCNC(=O)CSc2nc(=O)n3cccc(C)c3n2)cc1OC, the “activity change, negative = inhibition” value was inactive: -4.44%. With Cn1c(=O)c(=O)n(C)c2cc(S(=O)(=O)Nc3ccc4c(c3)OCCO4)ccc21 the activity change, negative = inhibition was inconclusive: -7.52%. In the case of COc1ccc(NC(=O)CSc2nc(C)cs2)c([N+](=O)[O-])c1, the activity change, negative = inhibition is reported as inconclusive: 4.53%. For COc1cc(NC(=O)CN(c2cc(C)cc(C)c2)S(=O)(=O)c2c(C)noc2C)cc(OC)c1, the activity change, negative = inhibition was inconclusive: 6.47%. In the case of Cn1cc(CN2CCCC(C(=O)c3cc(F)ccc3F)C2)c2ccccc21 (centres undefined), the Potency is reported as inconclusive: 17.8 µM [falling, single point]. In the case of COc1nc(OC)nc(N2CCCCCC2)n1, the Potency is reported as inconclusive: 6.51 µM [falling, single point]. In the case of O=C(COC(=O)Cc1ccccc1F)Nc1cccc(F)c1, the activity change, negative = inhibition is reported as inconclusive: 4.81%. In the case of CC(=O)OCC1=C(C(=O)O)N2C(=O)C(NC(=O)c3ccc(COc4c(C)cccc4Cl)o3)C2SC1 (centres undefined), the “activity change, negative = inhibition” value is reported as inactive: -16.6%. With COc1cccc(NC(=O)Nc2ccc(C(C)(C)C)cc2)c1 the activity change, negative = inhibition was inconclusive: -27.5%. In the case of Cc1ccc(CNC(=O)C(=O)NCC2CCCN2S(=O)(=O)c2cc(C)ccc2C)cc1 (centres undefined), the Potency is reported as inconclusive: 23.1 µM [falling, single point]. In the case of Cc1ccc(C(=O)COC(=O)CCC(=O)Nc2cccc(Cl)c2)cc1[N+](=O)[O-], the Potency is reported as inconclusive: 5.01 µM [rising, full curve, poor fit]. In the case of COc1ccccc1NC(=O)c1nnn(CC(=O)Nc2cccc(SC)c2)c1N, the activity change, negative = inhibition is reported as inconclusive: -7.5%. In the case of CCCCC(=O)NC(c1ccccc1)c1ccc2cccnc2c1O (centres undefined), the activity change, negative = inhibition is reported as inconclusive: -9.01%. In the case of COc1ccc2cnn(-c3ccc(OC(F)(F)Cl)cc3)c(=O)c2c1OC, the activity change, negative = inhibition is reported as inconclusive: 9.52%. With O=C(c1ccc([N+](=O)[O-])o1)N1CCOCC1 the “activity change, negative = inhibition” value was inactive: -0.474%. For COc1ccc(-c2cc3ccccc3n2CC(O)CNC(CO)(CO)CO)cc1 (centres undefined), the activity change, negative = inhibition was inconclusive: -10.6%. In the case of COc1cc2c(cc1OC)CN(C(=O)c1ccc(S(=O)(=O)N3CCCC3)cc1)CC2, the activity change, negative = inhibition is reported as inconclusive: -16.8%. In the case of Cc1ccc(CN2C(=O)N/C(=C\c3ccc(N4CCOCC4)cc3)C2=O)cc1, the activity change, negative = inhibition is reported as inconclusive: 7.6%. In the case of CCOC(=O)C1=C(O)c2ccccc2C(=O)/C1=C\c1ccc(C)cc1, the Potency is reported as inconclusive: 20.6 µM [falling, single point]. With O=C1CCC(C(=O)N2CCOCC2)CN1Cc1ccc(Cl)cc1 (centres undefined) the activity change, negative = inhibition was inconclusive: 4.36%. With NNC(=O)CC(=O)NC1(Cc2ccc(O)cc2)CCCCC1 the Potency was inconclusive: 17.8 µM [falling, single point]. For O=C(Oc1ccc2ccc(O)cc2c1)C1CCCCC1, the “activity change, negative = inhibition” value was inactive: 1.51%. With COc1ccc(Br)cc1CN(C)C(C)C(=O)Nc1cc([N+](=O)[O-])ccc1OC (centres undefined) the “activity change, negative = inhibition” value was inactive: -2.15%. For COc1ccc(-c2[nH]n(-c3ccc([N+](=O)[O-])cc3)c(=O)c2C=NCc2ccc(F)cc2)cc1, the activity change, negative = inhibition was inconclusive: 14.5%. In the case of O=[N+]([O-])c1ccc(CN2CCN(Cc3c[nH]c4ccccc34)CC2)cc1, the “activity change, negative = inhibition” value is reported as inactive: 0.716%. With O=C(CSc1nc(C2CCCCC2)nc2ccccc12)NCc1ccc2c(c1)OCO2 the “activity change, negative = inhibition” value was inactive: -6.56%. For CN(C(=O)c1ccc2c(c1)OCO2)C1CCCCC1, the Potency was inconclusive: 25.1 µM [falling, single point]. In the case of Cc1ccc(C(=O)NCC(=O)OC(C)C(=O)NCCC2=CCCCC2)cc1C (centres undefined), the activity change, negative = inhibition is reported as inconclusive: 10.6%. In the case of Cc1cccc(C)c1NC(=O)COC(=O)c1cc(-c2cccnc2)nc2ccccc12, the “activity change, negative = inhibition” value is reported as inactive: 6.78%. In the case of CCC(=O)N1CCc2cc(S(=O)(=O)CCC(=O)NCCc3ccc(S(N)(=O)=O)cc3)ccc21, the “activity change, negative = inhibition” value is reported as inactive: -12.2%. With COc1ccc(CNC(=O)C[C@H]2C[C@H](C(=O)N3CCOCC3)[C@@]3(CCC4CCCC4)c4[nH]c5ccc(Cl)cc5c4CCN3C2=O)cc1OC the “activity change, negative = inhibition” value was inactive: 0.526%. In the case of Cc1ccc(Sc2c([N+](=O)[O-])c(=O)n(C)c3ccccc23)cc1, the activity change, negative = inhibition is reported as inconclusive: 0.476%. For O=C(Nc1ccc2c(c1)OCCO2)c1oc2ccccc2c1NC(=O)C1CC1, the activity change, negative = inhibition was inconclusive: -1.8%. In the case of C=CCN1C(=O)c2ccc(C(=O)N3CCN(S(=O)(=O)c4ccc(C(C)C)cc4)CC3)cc2C1=O, the activity change, negative = inhibition is reported as inconclusive: -11.1%. With Cc1cc(OC(=O)c2ccc(C(C)(C)C)cc2)c([N+](=O)[O-])c(=O)[nH]1 the “activity change, negative = inhibition” value was inactive: -0.73%. With COc1ccc(NC(=O)C2Cc3ccccc3CN2C(=O)c2ccco2)cc1 (centres undefined) the activity change, negative = inhibition was inconclusive: 1.43%. In the case of COc1ccccc1CCNC(=O)NC1CCCCC1, the Potency is reported as inconclusive: 35.5 µM [rising, single point]. For O=C(O)Cn1cnc2c(oc3ccccc32)c1=O, the Potency was inconclusive: 11.2 µM [rising, partial curve, poor fit]. In the case of CCN(CC)S(=O)(=O)c1ccc(OC)c(NC(=O)OCc2ccccc2)c1, the activity change, negative = inhibition is reported as inconclusive: -1.06%. For CCCCC(=O)Nc1ccc(C(=O)NCCN2CCOCC2)cc1, the “activity change, negative = inhibition” value was inactive: 7.33%. With O=C(CSc1nc2ccc(Nc3nc(N4CCOCC4)nc(N4CCOCC4)n3)cc2s1)NCc1ccco1 the activity change, negative = inhibition was inconclusive: -16.1%. With COc1ccc(NC2CCCN(C(=O)CCc3cn[nH]c3)C2)cc1 (centres undefined) the activity change, negative = inhibition was inconclusive: 5.51%. In the case of Cn1c(/N=C/c2c(O)ccc3ccccc23)nc2ccccc21, the activity change, negative = inhibition is reported as inconclusive: -14.3%. With O=[N+]([O-])c1cccc(-c2nnc(-c3ccc4c(c3)OCO4)o2)c1 the activity change, negative = inhibition was inconclusive: 2.82%. With CC(C)N(C(=O)[C@H]1C[C@H](CC(=O)NCCCN(C)C)C(=O)N2CCc3c([nH]c4ccc(Cl)cc34)[C@]12C)C(C)C the Potency was inconclusive: 29.1 µM [falling, single point]. For Cc1coc2c1C(=O)C(=O)c1c-2ccc2c1CCCC2(C)C, the “activity change, negative = inhibition” value was inactive: 8.63%. In the case of Cc1cc(OCC(O)CN2CCc3ccccc3C2)ccc1Cl (centres undefined), the “activity change, negative = inhibition” value is reported as inactive: 0.375%. In the case of Cn1nc(-c2ccccc2)cc1NC(=O)c1cccs1, the activity change, negative = inhibition is reported as inconclusive: 10.1%. In the case of Cc1ccccc1N1CCN(C2CCCN(C(=O)c3ccccn3)C2)CC1 (centres undefined), the “activity change, negative = inhibition” value is reported as inactive: 3.79%. In the case of O=C(Nc1cccc(F)c1)c1coc(=O)c(Br)c1, the activity change, negative = inhibition is reported as inconclusive: 15.6%. In the case of CCn1cc([N+](=O)[O-])c(C(=O)N2N=C3/C(=C/c4cccs4)CCCC3C2c2cccs2)n1 (centres undefined), the activity change, negative = inhibition is reported as inconclusive: -8.52%. With O=C(Nc1ccccc1F)c1ccc([N+](=O)[O-])s1 the activity change, negative = inhibition was inconclusive: -18.8%. For CCN(CC(=O)NCc1ccc(Cl)cc1)C(=O)c1oc2ccccc2c1C, the activity change, negative = inhibition was inconclusive: -0.64%. In the case of Nc1ncn(C2O[C@H](CO)[C@@H](O)[C@H]2O)c(=O)n1 (some centres undefined), the activity change, negative = inhibition is reported as inconclusive: 0.214%. For COc1ccc(N2CCN(C(=O)COC(=O)c3cccc(S(=O)(=O)Nc4ccccc4OC)c3)CC2)cc1, the “activity change, negative = inhibition” value was inactive: -0.343%. For O=C(c1ccccc1)N1CCN(c2ncnc3c(-c4ccccc4)nsc23)CC1, the activity change, negative = inhibition was inconclusive: 7.05%. With O=C(c1cccs1)N(Cc1cccnc1)c1nc2ccc(F)cc2s1 the “activity change, negative = inhibition” value was inactive: 18.3%. For CSc1ccccc1NC(=O)C1CC(c2c(F)cccc2Cl)=NO1 (centres undefined), the activity change, negative = inhibition was inconclusive: -3.06%. In the case of COCCOC(=O)C1=C(C)NC(=O)NC1c1cccc(F)c1 (centres undefined), the activity change, negative = inhibition is reported as inconclusive: 6.91%. In the case of COC(=O)c1ccc(N2NC(=O)/C(=C/c3ccc(-c4ccc(Cl)c(C(=O)O)c4)o3)C2=O)cc1, the “activity change, negative = inhibition” value is reported as inactive: -4.91%. In the case of COc1ccc(-c2csc3nc(-c4ccccc4OC)oc(=O)c23)cc1, the Potency is reported as inconclusive: 3.55 µM [falling, full curve]. For O=C(NCc1nnc2c(C(F)(F)F)cc(Cl)cn12)C1CCCC1, the “activity change, negative = inhibition” value was inactive: 3.34%. With Cc1cc(C)cc(N=c2c([N+](=O)[O-])nn(-c3ccc4c(c3)OCCO4)n2O)c1 the “activity change, negative = inhibition” value was inactive: -27.4%. With O=C(Nc1ccc(CN2CCOCC2)cc1)c1cc2ccccn2n1 the activity change, negative = inhibition was inconclusive: -0.609%. In the case of N/C(=N\OC(=O)c1cccc(Cl)c1)c1ccncc1, the activity change, negative = inhibition is reported as inconclusive: 10.3%. In the case of CCn1c(-c2cc(Cl)ccc2OC)n[nH]c1=S, the “activity change, negative = inhibition” value is reported as inactive: 2.16%. With Cc1c(C=O)c(=O)n(-c2ccccc2)n1-c1ccccc1 the activity change, negative = inhibition was inconclusive: 0.454%. With Cc1ccc2c(CC(=O)NC3CCCc4ccccc43)coc2c1 (centres undefined) the activity change, negative = inhibition was inconclusive: -2.96%. For COCCNC(=O)c1cccc(OC2CCN(C(C)COc3ccccc3)CC2)c1 (centres undefined), the “activity change, negative = inhibition” value was inactive: -3.46%. With CCNC(=O)C(=O)N/N=C/c1cc([N+](=O)[O-])ccc1O the “activity change, negative = inhibition” value was inactive: 4.98%. For CC(C)Cn1c(N)c(C(=O)COC(=O)c2cccnc2Cl)c(=O)n(C)c1=O, the activity change, negative = inhibition was inconclusive: 5.85%. With C=CCn1c(O)c(N=NC(=S)Nc2cccc(C)c2)c2ccccc21 the activity change, negative = inhibition was inconclusive: 8.78%. In the case of Cc1ncoc1C(=O)N1CCCC(C(=O)c2ccc(-c3ccccc3)cc2)C1 (centres undefined), the “activity change, negative = inhibition” value is reported as inactive: -6.45%. With CC(C)=CC(=O)O[C@@H]1Cc2cc3ccc(=O)oc3cc2OC1(C)C the “activity change, negative = inhibition” value was inactive: -20.9%. In the case of Cc1csc(NC(=O)COCC(=O)O)c1-c1nc2ccccc2s1, the activity change, negative = inhibition is reported as inconclusive: 11.5%. For CC1(C)Cc2c(cnn2-c2ccc(F)cc2)C(NC(=O)c2ccco2)C1 (centres undefined), the “activity change, negative = inhibition” value was inactive: 0.0121%. With O=c1[nH]c(/C(=N\O)c2ccccc2)no1 the Potency was inconclusive: 23.1 µM [cytotoxic, partial curve].
